# From the supplement of paper PMC6411743
# Chains of the proteins cited; added tags and fusions are not shown. Lines headed by an entry give the natural chain unless they say otherwise; changes in a name come on top.
# UniProt Q643R3: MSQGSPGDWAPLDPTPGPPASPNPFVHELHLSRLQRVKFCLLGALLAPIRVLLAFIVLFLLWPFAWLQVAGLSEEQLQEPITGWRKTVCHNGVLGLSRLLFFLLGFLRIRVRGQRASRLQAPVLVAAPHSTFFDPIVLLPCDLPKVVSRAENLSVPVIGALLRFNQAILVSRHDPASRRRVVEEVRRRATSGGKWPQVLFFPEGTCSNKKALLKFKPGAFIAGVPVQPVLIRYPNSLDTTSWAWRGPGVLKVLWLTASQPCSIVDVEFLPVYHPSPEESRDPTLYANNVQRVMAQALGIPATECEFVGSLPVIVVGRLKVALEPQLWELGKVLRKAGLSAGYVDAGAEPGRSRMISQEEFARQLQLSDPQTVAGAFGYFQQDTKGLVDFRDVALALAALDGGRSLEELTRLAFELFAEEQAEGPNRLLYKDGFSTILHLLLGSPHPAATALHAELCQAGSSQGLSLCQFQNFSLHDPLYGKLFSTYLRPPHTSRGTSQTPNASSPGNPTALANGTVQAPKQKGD
# UniProt Q7Z6P3: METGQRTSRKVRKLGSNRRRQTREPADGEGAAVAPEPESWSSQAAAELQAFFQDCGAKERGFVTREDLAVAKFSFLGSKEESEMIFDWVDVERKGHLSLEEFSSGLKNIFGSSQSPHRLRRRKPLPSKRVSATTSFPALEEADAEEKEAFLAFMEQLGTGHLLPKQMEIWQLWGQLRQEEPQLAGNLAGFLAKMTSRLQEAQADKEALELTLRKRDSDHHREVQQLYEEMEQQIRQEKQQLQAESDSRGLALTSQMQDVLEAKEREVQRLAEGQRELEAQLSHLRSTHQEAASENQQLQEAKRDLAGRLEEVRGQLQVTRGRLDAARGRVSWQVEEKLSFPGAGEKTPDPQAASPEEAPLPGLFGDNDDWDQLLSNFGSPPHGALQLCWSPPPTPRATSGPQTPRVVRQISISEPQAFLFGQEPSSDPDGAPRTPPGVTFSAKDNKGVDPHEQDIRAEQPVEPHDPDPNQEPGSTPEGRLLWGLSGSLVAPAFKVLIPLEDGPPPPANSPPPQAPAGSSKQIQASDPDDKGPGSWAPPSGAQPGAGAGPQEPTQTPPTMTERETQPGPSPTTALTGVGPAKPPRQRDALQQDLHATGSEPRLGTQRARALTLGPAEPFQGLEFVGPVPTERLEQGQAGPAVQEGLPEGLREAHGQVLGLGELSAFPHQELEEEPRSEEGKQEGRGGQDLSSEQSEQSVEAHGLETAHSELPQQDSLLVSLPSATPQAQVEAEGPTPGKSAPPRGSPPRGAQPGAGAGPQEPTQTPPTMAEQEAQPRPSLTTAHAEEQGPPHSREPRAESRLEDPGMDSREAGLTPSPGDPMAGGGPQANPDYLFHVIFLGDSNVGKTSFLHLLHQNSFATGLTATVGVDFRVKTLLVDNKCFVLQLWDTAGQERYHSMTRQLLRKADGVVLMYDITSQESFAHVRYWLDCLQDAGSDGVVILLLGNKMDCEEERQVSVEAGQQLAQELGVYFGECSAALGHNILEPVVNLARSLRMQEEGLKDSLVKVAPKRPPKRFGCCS
# UniProt P33240: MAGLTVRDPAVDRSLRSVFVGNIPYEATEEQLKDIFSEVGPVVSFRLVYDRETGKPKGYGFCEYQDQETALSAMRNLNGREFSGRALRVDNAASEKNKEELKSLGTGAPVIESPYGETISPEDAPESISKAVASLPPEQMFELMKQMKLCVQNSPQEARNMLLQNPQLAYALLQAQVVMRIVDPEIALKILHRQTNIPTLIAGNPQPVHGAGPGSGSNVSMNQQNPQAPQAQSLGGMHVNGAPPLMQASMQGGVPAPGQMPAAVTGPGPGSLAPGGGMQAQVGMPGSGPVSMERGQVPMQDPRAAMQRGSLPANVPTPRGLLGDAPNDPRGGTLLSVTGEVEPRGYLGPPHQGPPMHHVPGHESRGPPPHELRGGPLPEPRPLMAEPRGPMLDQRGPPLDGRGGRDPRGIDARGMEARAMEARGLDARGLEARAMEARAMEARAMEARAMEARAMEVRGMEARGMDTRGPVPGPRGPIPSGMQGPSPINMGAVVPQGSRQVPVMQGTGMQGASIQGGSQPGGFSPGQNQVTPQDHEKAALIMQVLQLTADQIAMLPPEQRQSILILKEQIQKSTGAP
# UniProt Q9H9E3: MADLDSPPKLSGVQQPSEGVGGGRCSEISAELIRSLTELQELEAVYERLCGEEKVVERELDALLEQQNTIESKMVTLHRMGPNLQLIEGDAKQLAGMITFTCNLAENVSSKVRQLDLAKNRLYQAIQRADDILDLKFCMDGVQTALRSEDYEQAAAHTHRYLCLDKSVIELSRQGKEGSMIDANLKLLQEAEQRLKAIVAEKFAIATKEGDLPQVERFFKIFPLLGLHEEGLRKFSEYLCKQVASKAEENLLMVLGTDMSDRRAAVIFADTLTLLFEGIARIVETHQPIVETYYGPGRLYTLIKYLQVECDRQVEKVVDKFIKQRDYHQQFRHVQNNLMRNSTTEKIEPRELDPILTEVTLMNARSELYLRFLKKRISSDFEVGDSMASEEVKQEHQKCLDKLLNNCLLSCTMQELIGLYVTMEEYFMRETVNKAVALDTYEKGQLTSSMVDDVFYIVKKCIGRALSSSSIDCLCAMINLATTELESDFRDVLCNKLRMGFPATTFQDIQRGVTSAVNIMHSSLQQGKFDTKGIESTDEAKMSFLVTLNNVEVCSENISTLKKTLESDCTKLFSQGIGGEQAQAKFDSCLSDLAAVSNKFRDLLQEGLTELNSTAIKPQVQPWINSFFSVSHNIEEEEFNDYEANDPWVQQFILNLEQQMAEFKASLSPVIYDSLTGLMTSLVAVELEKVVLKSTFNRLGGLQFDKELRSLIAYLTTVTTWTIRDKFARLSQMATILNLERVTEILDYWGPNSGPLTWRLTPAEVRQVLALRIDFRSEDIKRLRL
# UniProt Q16718, whole entry: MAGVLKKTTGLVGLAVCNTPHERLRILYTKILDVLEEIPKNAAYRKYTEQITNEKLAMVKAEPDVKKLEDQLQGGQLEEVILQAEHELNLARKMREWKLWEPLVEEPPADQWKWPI
# ± gives the standard deviation of the averaged measurements. This is one part of the list.
# Compound: Nc1nc2c(ncn2[C@@H]2O[C@H](COP(=O)(O)OP(=O)(O)OP(=O)(O)O)[C@@H](O)[C@H]2O)c(=O)[nH]1 [guanosine triphosphate]
# Experiment: NP40-soluble protein abundance relative to vehicle (solubility fold change) (ratio); higher = more soluble protein in presence of GTP
# How it was run: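 Values are fold changes against the detergent-processed vehicle, based on vsn-normalised intensities. Jurkat crude lysate was treated at eight concentrations from 0.1 to 10 mM (10 min at room temperature, then 3 min at 37 °C), solubilised with 0.8% NP40 and benzonase, ultracentrifuged and analysed by TMT-labelled LC-MS/MS over three independent experiments.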
Target,NP40-soluble protein abundance (concentration: 0.1mM),NP40-soluble protein abundance (concentration: 0.5mM),NP40-soluble protein abundance (concentration: 1mM),NP40-soluble protein abundance (concentration: 2mM),NP40-soluble protein abundance (concentration: 4mM),NP40-soluble protein abundance (concentration: 6mM),NP40-soluble protein abundance (concentration: 8mM),NP40-soluble protein abundance (concentration: 10mM)
A0A0C4DGT4|Q643R3 (UniProt Q643R3),0.953 ± 0.051,0.96 ± 0.066,0.994 ± 0.057,0.973 ± 0.1,0.874 ± 0.099,0.895 ± 0.032,0.9199 ± 0.0058,0.835 ± 0.094
A0A087WXI0 (UniProt Q7Z6P3),0.997 ± 0.12,0.938 ± 0.11,0.96 ± 0.096,0.929 ± 0.09,0.963 ± 0.097,0.93 ± 0.14,0.944 ± 0.098,0.941 ± 0.14
A0A0A0MT56|P33240 and related entries (UniProt P33240),0.965 ± 0.022,0.908 ± 0.038,0.994 ± 0.015,1 ± 0.034,1 ± 0.039,1 ± 0.039,1.076 ± 0.0043,1.07 ± 0.059
A0A0A0MS45|J3KNI1 and related entries (UniProt Q9H9E3),1.03 ± 0.011,1.02 ± 0.042,1.05 ± 0.043,1.04 ± 0.12,0.993 ± 0.039,1.04 ± 0.053,0.999 ± 0.041,0.971 ± 0.055
A0A087X1G1|C9IZN5 and related entries (UniProt Q16718),0.917 ± 0.041,0.852 ± 0.0086,1.09 ± 0.2,1.13 ± 0.15,1.14 ± 0.19,1.11 ± 0.18,1.06 ± 0.026,1.16 ± 0.27
A0A0J9YYD9,1.03 ± 0.14,0.941 ± 0.086,1.1 ± 0.17,1.13 ± 0.23,1.18 ± 0.027,1.144 ± 0.0065,1.25 ± 0.17,1.31 ± 0.23
